Binding data for one substance are collected here from publication PMC9997211.

Results are given in words; binding and its absence hold for the method and conditions named. In cells and extracts the contact can be indirect.

The target in the assay is T1, ZEB1 (WT), zinc finger E-box binding homeobox 1 (UniProt P37275).
T1 sequence: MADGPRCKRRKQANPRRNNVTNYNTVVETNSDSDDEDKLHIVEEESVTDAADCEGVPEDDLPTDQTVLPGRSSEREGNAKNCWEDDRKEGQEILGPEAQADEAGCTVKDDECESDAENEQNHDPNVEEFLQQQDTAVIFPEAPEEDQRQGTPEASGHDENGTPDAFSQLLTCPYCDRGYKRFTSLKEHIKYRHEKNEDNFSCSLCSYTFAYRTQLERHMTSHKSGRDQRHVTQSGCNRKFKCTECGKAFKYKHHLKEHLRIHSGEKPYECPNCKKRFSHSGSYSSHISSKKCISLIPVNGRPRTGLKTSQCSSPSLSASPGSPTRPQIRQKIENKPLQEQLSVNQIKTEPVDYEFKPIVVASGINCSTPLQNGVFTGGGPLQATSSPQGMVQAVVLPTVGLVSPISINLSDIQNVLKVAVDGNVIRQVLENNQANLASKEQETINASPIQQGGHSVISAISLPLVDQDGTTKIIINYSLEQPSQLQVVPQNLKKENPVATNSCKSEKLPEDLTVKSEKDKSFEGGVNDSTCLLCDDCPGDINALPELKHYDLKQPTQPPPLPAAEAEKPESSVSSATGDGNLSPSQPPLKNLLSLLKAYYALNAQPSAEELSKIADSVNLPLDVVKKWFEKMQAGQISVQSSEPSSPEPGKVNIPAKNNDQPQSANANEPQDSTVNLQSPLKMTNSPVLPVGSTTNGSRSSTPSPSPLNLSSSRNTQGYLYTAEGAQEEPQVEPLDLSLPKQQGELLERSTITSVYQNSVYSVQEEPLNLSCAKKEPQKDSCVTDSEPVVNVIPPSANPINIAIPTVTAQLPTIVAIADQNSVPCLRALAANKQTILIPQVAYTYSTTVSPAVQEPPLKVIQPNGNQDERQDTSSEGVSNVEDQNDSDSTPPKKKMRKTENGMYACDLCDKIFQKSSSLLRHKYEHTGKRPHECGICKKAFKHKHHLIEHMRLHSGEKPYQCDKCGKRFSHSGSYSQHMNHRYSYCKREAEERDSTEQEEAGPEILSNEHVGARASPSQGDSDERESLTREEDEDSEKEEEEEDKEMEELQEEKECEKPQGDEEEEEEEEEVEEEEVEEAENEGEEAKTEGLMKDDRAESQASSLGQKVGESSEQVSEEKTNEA
Briefly: co-IP; lysates of HEK293T cells transfected with combinations of two tagged proteins; immunoprecipitation with anti-HA tag antibody-conjugated agarose beads, western blotting with tag antibodies.

MutZEB1 (ΔZn) (from UniProt P37275): the binding result is recorded as “no binding”.
